# Publication PMC9810602
# By UniProt entry, the sequences of proteins in these tests, tags left out.
# UniProt P54578: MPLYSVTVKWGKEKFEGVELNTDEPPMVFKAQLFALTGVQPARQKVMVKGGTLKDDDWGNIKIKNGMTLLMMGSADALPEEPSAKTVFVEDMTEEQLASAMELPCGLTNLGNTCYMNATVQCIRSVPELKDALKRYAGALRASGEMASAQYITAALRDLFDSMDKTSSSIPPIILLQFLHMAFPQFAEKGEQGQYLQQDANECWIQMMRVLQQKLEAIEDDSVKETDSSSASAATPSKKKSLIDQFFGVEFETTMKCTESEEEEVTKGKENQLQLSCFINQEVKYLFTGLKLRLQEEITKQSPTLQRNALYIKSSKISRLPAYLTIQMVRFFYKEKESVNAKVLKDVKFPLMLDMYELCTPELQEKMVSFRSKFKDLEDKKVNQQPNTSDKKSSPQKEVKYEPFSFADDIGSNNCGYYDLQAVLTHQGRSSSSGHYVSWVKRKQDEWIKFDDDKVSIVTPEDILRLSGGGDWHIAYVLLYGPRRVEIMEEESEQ
# Results are given in words; binding and its absence hold for the method and conditions named. Binding seen in cells or lysates may run through a third protein. Some results given as binding are weak or reduced against the parent protein; the word gives no strength.
# B1: Milk fat globule epidermal growth factor 8 (MFG-E8) (protein, UniProt Q08431 24-387)
# chain: LDICSKNPCHNGGLCEEISQEVRGDVFPSYTCTCLKGYAGNHCETKCVEPLGLENGNIANSQIAASSVRVTFLGLQHWVPELARLNRAGMVNAWTPSSNDDNPWIQVNLLRRMWVTGVVTQGASRLASHEYLKAFKVAYSLNGHEFDFIHDVNKKHKEFVGNWNKNAVHVNLFETPVEAQYVRLYPTSCHTACTLRFELLGCELNGCANPLGLKNNSIPDKQITASSSYKTWGLHLFSWNPSYARLDKQGNFNAWVAGSYGNDQWLQVDLGSSKEVTGIITQGARNFGSVQFVASYKVAYSNDSANWTEYQDPRTGSSKIFPGNWDNHSHKKNLFETPILARYVRILPVAWHNRIALRLELLGC
# Molecular target: ubiquitin-specific protease 14 (USP14) (human (endogenous in BEAS-2B and HBE)) (UniProt P54578)
# Test: co-IP; endogenous proteins; BEAS-2B and HBE cells lysed in IP buffer with protease inhibitors; lysates (1 mg protein) with anti-USP14, anti-MFG-E8 or control IgG overnight at 4 °C, protein A/G-agarose beads 2 h; immunoblot
binder,measurement,value
B1,binding,binds
